Results on 57 compounds are retold here after PubChem BioAssay AID2685 (National Center for Advancing Translational Sciences (NCATS), 2010).

Each structure is given as a SMILES string. Some of the results follow. These are further read-outs of the screen, such as a control signal, another cell line or another target. No call is given for them. The list favours compounds with an active or inconclusive main result. Words in brackets tell the shape of the fitted curve; partial curves, single points and poor fits give uncertain potencies.

The experiment in a line: qHTS Assay for Lipid Storage Modulators in Drosophila S3 Cells.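 For cell number change: cells counted by Cell Tracker Red CMTPX staining in the red channel.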 Particulars: BODIPY lipid droplet fluorescence, 18-24 h; for cell number change: measured here: cell count max response, cells fed with added oleic acid. The method, boiled down: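 Laser-scanning cytometry quantifies lipid droplet accumulation (500–530 nm total intensity; droplet/cell object ratio) in oleic acid-fed (400 uM added) Drosophila S3 cells treated with a concentration series. 20 uM Triacsin C defined 100% inhibition.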
Background: Quantitative high-throughput screening tests each substance at several concentrations.

The mark [1] stands for this setting: measured here: lipid fluorescence (Fed channel) AC50, cells fed with added oleic acid.
[2] abbreviates: measured here: cell number channel AC50, cells fed with added oleic acid.

Regarding `CCCN(CCO)Cc1ccc2ccccc2c1`, the cell number change came to 17.1%. In addition, under setting [1], the AC50 (as a rule, the concentration giving half of the maximal activity seen) was 4.61 µM [falling, full curve, poor fit].

With `CN(Cc1ccc(Cl)s1)C(=O)CCl`, the AC50 was 3.26 µM [falling, partial curve] under setting [2] and 4.61 µM [falling, partial curve] under setting [1].

Take `Cc1ccc(NC(=O)COC(=O)c2ccc3c(=O)n4c(nc3c2)CCC4)c(Br)c1`: the cell number change was -55.4%. Further, under setting [2], the concentration at half-maximal activity (AC50) was 32.6 µM [falling, partial curve, poor fit]. In addition, the AC50 under setting [1] is 6.51 µM [rising, single point].

For `Cc1ccc2[nH]c(=O)c(CN(CCCN3CCOCC3)C(=O)Nc3cccc(Cl)c3)cc2c1`, the cell number change worked out at 3.05%.

As to `CCCCOc1ccc(C(=O)Nc2cccc(C)n2)cc1`, the cell number change was determined as 21.9%. Further, the AC50 under setting [1] was 3.26 µM [rising, single point].

On to `Cc1ccc(OCc2nnc(SCC(=O)Nc3ncc(C)s3)o2)cc1`, for which the cell number change was -4.01%. For the same compound, the AC50 under setting [1] was 1.3 µM [falling, full curve].

In the case of `COc1ccc(C)c2sc(NC(=O)CCS(=O)(=O)c3ccccc3)nc12`, the AC50 under setting [1] is 29.1 µM [falling, single point].

As for `CC(=O)Nc1ccc(S(=O)(=O)NCCC(=O)OCC(=O)c2ccc(Br)cc2)cc1`, the cell number change worked out at 3.84%. Besides, the AC50 under setting [1] is 7.31 µM [falling, partial curve, poor fit].

For the compound `Cc1c(C(=O)N2CCOCC2)sc(NC(=O)Cc2ccccc2)c1C#N`, the cell number change is 16.1%. The concentration at half-maximal activity (AC50) under setting [1] was 0.00651 µM [rising, full curve, poor fit].

`Cc1cc(C)c(NC(=O)Cn2c(=O)n(Cc3ccco3)c(=O)c3ccccc32)c(C)c1`: the AC50 under setting [2] is 0.082 µM [rising, full curve, poor fit].

Regarding `O=C(CNCCCO)Nc1cc(C(F)(F)F)cc(NC(=O)CNCCCO)c1Cl`, the cell number change is 34.3%. Besides, under setting [2], the AC50 is 23.1 µM [rising, single point]. The AC50 under setting [1] was 0.517 µM [falling, full curve].

On to `COc1ccc(N2CCN(c3nc4ccccc4nc3NS(=O)(=O)c3ccccc3)CC2)cc1`, for which the cell number change was 46.6%. The AC50 under setting [2] was 2.31 µM [rising, partial curve, poor fit]. Moreover, under setting [1], the AC50 was 6.51 µM [rising, partial curve].

For `COCCCNC(=O)CCc1c(C)nc2c(c(C)nn2-c2ccc(C)cc2)c1C`, the AC50 under setting [2] is 0.411 µM [falling, single point].

Regarding `COc1ccc(CSCC(=O)N/N=C/c2ccc(OCC(=O)N3CCCCC3)cc2)cc1`, the cell number change amounted to 16.5%. Moreover, under setting [1], the AC50 was 6.51 µM [rising, single point].

For the compound `CCS(=O)(=O)NCC(c1ccco1)N1CCN(c2ccc(F)cc2)CC1` (centres undefined), the cell number change stood at 30.9%. Further, the AC50 under setting [2] is 32.6 µM [rising, single point].

As to `COc1ccc(CNC(=O)CCS(=O)(=O)c2ccc3c(c2)CCN3C(C)=O)cc1`, the cell number change was -28.1%. In addition, the AC50 under setting [1] was 0.517 µM [rising, partial curve, poor fit].

Consider `COc1ccc(Cl)cc1C(=O)Nc1nc2ccccc2[nH]1`, for which the cell number change was found to be 13.1%. Besides, the AC50 under setting [1] was 6.51 µM [rising, single point].

Turning to `COc1ccc(NC(=O)CN(C)C(=O)c2ccc(COc3ccccc3)o2)cc1`, the cell number change was -11.3%.

Regarding `Cc1ccc(C(=O)COC(=O)c2n[nH]c(=O)c3ccccc23)cc1`, the cell number change was -7.82%. Besides, under setting [1], the AC50 was 0.731 µM [falling, single point].

For `O=C(NC(=S)Nc1ccccc1)c1csnn1`, the AC50 under setting [1] is 1.46 µM [rising, partial curve].

Regarding `FC(F)(F)C(Oc1nc(NC2CCCCC2)nc(N2CCOCC2)n1)C(F)(F)F`, the cell number change was -14.1%. The AC50 under setting [1] was 25.9 µM [falling, partial curve].

For `Nc1ncn(C(=O)c2ccco2)n1`, the cell number change was -59.6%. In addition, the AC50 under setting [2] was 29.1 µM [falling, single point]. Besides, the AC50 under setting [1] is 14.6 µM [falling, partial curve].

Consider `O=C(CCN1CCN(C/C=C/c2ccccc2)CC1)Nc1ccccc1F`, for which the cell number change worked out at 33.2%. Also, the half-maximal activity concentration (AC50) under setting [2] was 23.1 µM [rising, single point].

With `Cc1ccc([N+](=O)[O-])cc1N(CC(=O)Nc1ccc(S(=O)(=O)Nc2cccc(C(F)(F)F)c2)cc1)S(C)(=O)=O`, the cell number change is -47.7%. Moreover, the AC50 under setting [2] was 18.4 µM [falling, partial curve]. Under setting [1], the AC50 was 2.31 µM [falling, partial curve].

On to `O=C(Cn1nc(-c2ccccc2)ccc1=O)Nc1cccc(NC(=O)c2ccccn2)c1`, for which the cell number change was -59.6%. In addition, the AC50 under setting [2] is 7.31 µM [falling, partial curve].

As to `COc1ccc(C(=O)CCC(=O)Nc2cccc(Cl)c2)cc1`, the cell number change was 39.5%. For the same compound, the AC50 under setting [2] is 29.1 µM [rising, single point].

For `CCOC(=O)C(NC(C)=O)(Nc1ccc(S(=O)(=O)Nc2nccs2)cc1)C(F)(F)F` (centres undefined), the cell number change is -31.5%. The AC50 under setting [2] is 1.03 µM [falling, full curve]. Further, the AC50 under setting [1] is 4.61 µM [falling, full curve, poor fit].

As to `O=C(NCc1ccc2c(c1)OCO2)c1ccc(CS(=O)(=O)c2cccc(C(F)(F)F)c2)o1`, the cell number change is -18.4%. In addition, the AC50 under setting [1] is 5.8 µM [falling, partial curve].

Regarding `O=C(N/C(=C\c1ccccc1)C(=O)N1CCOCC1)c1ccc(Br)o1`, the cell number change turned out to be 22.5%. Besides, the AC50 under setting [1] is 1.16 µM [rising, single point].

As for `CCOc1ccc(S(=O)(=O)NCCC(=O)NCC(c2cccs2)N(C)C)cc1` (centres undefined), the cell number change is -3.06%. Further, the AC50 under setting [2] is 6.51 µM [falling, single point]. Also, the AC50 under setting [1] was 6.51 µM [falling, single point].

Regarding `CCCCNC(=S)N=Nc1c(O)n(Cc2ccccc2)c2ccccc12`, the cell number change was -25.4%. Besides, the AC50 under setting [1] is 18.4 µM [falling, single point].

Regarding `COc1cccc(OC)c1OCCCCc1c(C)n[nH]c1C`, the cell number change was 21.4%. Also, under setting [1], the AC50 was 0.0058 µM [rising, full curve, poor fit].

For the compound `CC(=O)Nc1cccc(C(=O)Oc2cccc(C)c2)c1O`, the cell number change is -12.2%. Also, under setting [1], the AC50 is 11.6 µM [falling, partial curve].

Regarding `CCC(C)c1ccccc1N1CC(C(=O)Nc2cccc(S(=O)(=O)N3CCOCC3)c2)CC1=O` (centres undefined), the cell number change was -8.74%.

Turning to `Cc1cc(C(=O)CSc2nc3ccccc3c(=O)n2C)c(C)n1Cc1ccc2c(c1)OCO2`, the cell number change was -3.96%. Under setting [2], the half-maximal activity concentration (AC50) is 0.58 µM [falling, full curve]. The AC50 under setting [1] is 6.51 µM [falling, single point].

Turning to `CCc1ccc(C(C)NC(=O)c2ccc(F)cc2)cc1` (centres undefined), the cell number change was determined as 5.41%. Further, the AC50 under setting [1] is 1.03 µM [falling, full curve].

Consider `CC1Sc2ccc(S(=O)(=O)CCC(=O)NCc3ccccc3)cc2NC1=O` (centres undefined), for which the cell number change was determined as 29.7%. For the same compound, under setting [2], the AC50 is 4.11 µM [rising, full curve, poor fit].

In the case of `CC(C)n1c(O)c(N=NC(=O)Cc2csc(N3CCOCC3)n2)c2ccccc21`, the cell number change turned out to be 31.4%. The AC50 under setting [2] is 5.17 µM [rising, single point]. Further, the AC50 under setting [1] was 9.2 µM [rising, partial curve].

On to `O=C(CNC(=O)c1[nH]cnc1C(=O)N[C@@H](Cc1ccccc1)C(=O)OCc1ccccc1)OCc1ccccc1`, for which the cell number change came to 8.38%.

On to `O=C(O)C1CCN(C(=O)COc2ccc(Br)cc2)CC1`, for which the cell number change stood at 9.2%.

Take `Cc1cc(C)c(-c2cc(NC(=O)COC(=O)c3ccc(C#N)cc3)n(-c3ccccc3)n2)cc1C`: the cell number change worked out at 29.4%. Also, the AC50 under setting [1] is 1.46 µM [rising, full curve].

With `CC(C)OC(=O)CC1=NC(=O)CS1`, the cell number change came out at 1.66%. Moreover, the AC50 under setting [1] is 0.326 µM [falling, full curve].

For `CCc1c(C)sc(NC(=O)CCc2ccc(OC)cc2)c1C(N)=O`, the AC50 under setting [1] is 18.4 µM [rising, partial curve].

Regarding `CCCOc1ccc(-c2cn3ccccc3n2)cc1[N+](=O)[O-]`, the cell number change amounted to 3.58%. Further, the AC50 under setting [2] is 0.651 µM [falling, single point]. The AC50 under setting [1] is 0.82 µM [rising, full curve].

In the case of `CCCn1cc(SCC(=O)Nc2cc(C)on2)c2ccccc21`, the cell number change turned out to be 30.2%.

For `COC(=O)c1ccc(NC(=O)CN2C(=O)CCC2=O)cc1`, the cell number change was -23.4%. Moreover, the AC50 under setting [2] was 0.00411 µM [falling, full curve, poor fit].

In the case of `O=C(O)/C=C/c1cn(-c2ncc(C(F)(F)F)cc2Cl)c2ccccc12`, the cell number change is 15.8%.

Turning to `Cc1sc2ncnc(N3CCCCC3)c2c1C`, the cell number change is -17.1%. Besides, the AC50 under setting [2] was 0.651 µM [falling, partial curve, poor fit].

With `O=C(CCc1ccccc1)N/N=C\c1cc2c(cc1Br)OCO2`, the cell number change was -38.1%. In addition, the AC50 under setting [2] was 32.6 µM [falling, single point]. For the same compound, the AC50 under setting [1] was 29.1 µM [falling, single point].

As to `CC1CCN(C(=O)CCc2ccc(Oc3cc([N+](=O)[O-])cc([N+](=O)[O-])c3)cc2)CC1`, the cell number change came to 119%. Besides, the AC50 under setting [2] is 29.1 µM [rising, partial curve, poor fit]. Moreover, under setting [1], the AC50 is 29.1 µM [rising, partial curve, poor fit].

On to `CC/C(=N/Nc1cccc(Cl)c1)c1cnnc(SC)n1`, for which the cell number change was -24.9%. In addition, the AC50 under setting [2] is 0.326 µM [falling, full curve, poor fit]. Moreover, under setting [1], the AC50 was 0.0231 µM [falling, full curve, poor fit].

As for `O=C(O)c1ccc2nc(-c3ccccc3)sc2c1`, the cell number change turned out to be 10.9%. For the same compound, under setting [1], the AC50 is 4.61 µM [rising, full curve, poor fit].

Consider `Cc1ccsc1C(=O)N1CC(=O)Nc2ccccc21`, for which the cell number change was 10.7%. For the same compound, under setting [1], the AC50 was 0.00517 µM [rising, full curve, poor fit].

Turning to `Cc1ccc(S(=O)(=O)NCc2cn3ccsc3n2)c(C)c1`, the cell number change was -14.6%.

As for `NS(=O)(=O)c1ccc(N2N=C(c3ccc(Br)cc3)CC2c2ccc(F)cc2)cc1` (centres undefined), the cell number change was -83.9%. Moreover, under setting [2], the AC50 was 23.1 µM [falling, single point]. Under setting [1], the AC50 is 29.1 µM [falling, single point].

In the case of `Cc1ccc(CN2CC(C(=O)N3CCN(S(=O)(=O)c4ccccc4)CC3)CC2=O)cc1` (centres undefined), the cell number change turned out to be 18.5%.

Turning to `Cc1cc(C)n(-c2nc(NCC3CCCO3)c3c4c(sc3n2)COC(C)(C)C4)n1` (centres undefined), the AC50 is 1.3 µM [rising, full curve] under setting [2] and 0.58 µM [rising, single point] under setting [1].
